Data: patent US12274703B2, “Compositions and methods of treatment for neurological disorders comprising a dementia” (Gliapharm SA, priority 2017, dated 2025)
Counter-ions that a name gives are not always drawn.

Assays:
astrocytes [1] = assay: Extracellular lactate quantification; type: cell-based; settings: Mus musculus, Astrocyte, 1.5 h; Prestwick hits; 0-100 μM, 90 min
Description: Primary cultures of cerebrocortical astrocytes were obtained from 1-2-day-old OF1 mouse pups (Charles River Laboratories). Briefly, cortices were isolated and minced in small pieces under a dissecting microscope. The cells were incubated for 30 min at 37° C. in a solution containing 20 U/ml of papain enzyme (Worthington Biochemical), L-cysteine 1 mM (Sigma), and 10 kU/ml DNase I (Worthington Biochemical) for an enzymatic dissociation. […]
Secretion of L-lactate was determined in the extracellular medium of 96-well plated astrocytes after 90 min stimulation (at 37° C., in 5% CO2/95% air conditions) with the drug of interest. […]
Briefly, 200 μl of a Glycine (Sigma)-Semicarbazide (Acros) 0.2M pH 10 buffer containing 3 mM NAD (Roche) and LDH 14 U/ml (Roche) was added to each well of a 96-well plate containing 30 μl aliquots complemented with 20 μl fresh complete D5030 medium. […] After samples cooled down at room temperature, the fluorescence intensity (340 nm excitation/450 nm emission) that represents the amount of NADH produced was measured, and lactate concentration values were determined from a standard curve of L-lactate.
Levels of lactate secreted by astrocytes were measured in the extracellular medium at 90 min after stimulation with 20 hits from the Prestwick library (10 μM each), as shown in FIG. 1. n=6-10; Ctrl pos. is CCCP (2 uM). […]

astrocytes [2] = assay: MTT viability assay; type: cell-based; settings: Mus musculus, Astrocyte; Prestwick hits; cellular toxicity, 0-200 uM, 24 h
Description: Primary cultures of cerebrocortical astrocytes were obtained from 1-2-day-old OF1 mouse pups (Charles River Laboratories). Briefly, cortices were isolated and minced in small pieces under a dissecting microscope. The cells were incubated for 30 min at 37° C. in a solution containing 20 U/ml of papain enzyme (Worthington Biochemical), L-cysteine 1 mM (Sigma), and 10 kU/ml DNase I (Worthington Biochemical) for an enzymatic dissociation. Papain activity was stopped by the addition of fetal calf serum (FCS) to the solution, and a single-cell suspension was then obtained by mechanical dissociation, which consisted in cells trituration in a DMEM (D7777, Sigma-Aldrich) medium (supplemented with 44 mm NaHCO3, and 10 ml/L antibiotic/antimycotic solution) containing 10% FCS. The cells were seeded at an average density of 6×10^4 cells/cm^2 in poly-D-lysine-coated 96, 12 or 6-well culture plates, depending on their use, and incubated at 37° C. in a humidified atmosphere containing 5% CO2/95% air. Culture medium was renewed twice per week. Cells were stimulated and harvested between DIV14 and DIV17, when confluence and cell growth were optimal. […]
The amount of reduced MTT (formazan) solubilized in DMSO was then determined spectrophotometrically using absorbance at 570 nm (Safire 2; Tecan). […]

Structure (SMILES)	EC50 (astrocytes [1])	IC50 (astrocytes [2])
Clc1ccc2c(c1)CCc1cccnc1C2=C1CCNCC1 [Desloratadine]	2.1 µM	11 µM
O=c1n(CCCN2CCN(c3cccc(Cl)c3)CC2)nc2ccccn12 [Trazodone hydrochloride, trazodone, reference compound]	11 µM	> 200 µM
